In PubChem BioAssay AID2685 (National Center for Advancing Translational Sciences (NCATS), 2010):
This is one part of the list. Further columns of the screen follow, without active or inactive calls. Compounds called inactive in the main read-out are mostly missing here. Potencies come from curve fits of mixed quality, noted in brackets.

Assay: qHTS Assay for Lipid Storage Modulators in Drosophila S3 Cells;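 as to cell number change: cells counted by Cell Tracker Red CMTPX staining in the red channel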
Settings: BODIPY lipid droplet fluorescence, 18-24 h; for cell number change: measured here: cell count max response, cells fed with added oleic acid
In short: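 Drosophila S3 cells loaded with oleic acid (400 uM, as added) and compounds at several concentrations; lipid droplets imaged by 488-nm laser-scanning cytometry, 500–530 nm intensity and object ratio to cell channel. Percent activity normalized to 20 uM Triacsin C.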

[1] = measured here: lipid fluorescence (Fed channel) AC50, cells fed with added oleic acid
[2] = measured here: cell number channel AC50, cells fed with added oleic acid

Row | SMILES | cell number change | AC50 [1] | AC50 [2]
1 | Cc1sc2nc(CN3CCOCC3)nc(NCCc3ccccc3)c2c1C | -20.6% | 14.6 µM [falling, partial curve] | –
2 | CCOC(=O)N1CCN(C(=S)NC(=O)/C=C/c2ccc(C)cc2)CC1 | 17.9% | 23.1 µM [rising, single point] | –
3 | O=c1c2ccccc2cnn1Cc1n[nH]c(=S)n1-c1ccccc1 | -50% | 23.1 µM [rising, partial curve, poor fit] | 29.1 µM [falling, single point]
4 | COc1ccc(NC(=O)C(CC(=O)O)Cc2ccc(Cl)cc2)cc1 (centres undefined) | 0.73% | 16.4 µM [rising, partial curve] | –
5 | COc1ccc(C(=O)NCc2cccnc2)cc1S(=O)(=O)N1CCOCC1 | -2.01% | 23.1 µM [falling, partial curve] | –
6 | COCCn1c(C)cc(C(=O)CSc2nc3nc(C)cc(C)n3n2)c1C | 34.9% | 23.1 µM [rising, single point] | 6.51 µM [falling, single point]
7 | O=C(CSc1nc2ccccc2[nH]1)c1ccc(Cl)s1 | 30.9% | – | 1.84 µM [rising, partial curve, poor fit]
8 | COc1ccc(/C=C/C(=O)OCc2cccc([N+](=O)[O-])c2)cc1 | -3.42% | – | 0.731 µM [falling, full curve, poor fit]
9 | CCCN1C(=O)CC(Sc2ncccc2C(=O)O)C1=O (centres undefined) | -21.3% | 4.11 µM [falling, full curve] | –
10 | CCc1ccc(NC(=O)CSc2nc(=O)n(CCN(C)C)c3c2CCCC3)cc1 | -20% | 2.06 µM [falling, partial curve, poor fit] | 2.06 µM [falling, full curve, poor fit]
11 | Cc1c(NC(=O)c2cccc(NS(C)(=O)=O)c2)c(=O)n(-c2ccccc2)n1C | – | 23.1 µM [rising, single point] | –
12 | COc1ccccc1C1C(C(N)=O)=C(C)Nc2nc(-c3ccccc3Cl)nn21 (centres undefined) | 18.1% | 20.6 µM [rising, single point] | –
13 | CCN1CCCC1CNc1ncnc2c1[nH]c1ccc(Cl)cc12 (centres undefined) | -3.35% | 2.06 µM [rising, full curve] | –
14 | CCN(CC)CCCOC(=O)C1(c2ccccc2)CCCC1 | -57.9% | 23.1 µM [falling, partial curve] | 16.4 µM [falling, partial curve, poor fit]
15 | CCOc1ccccc1NS(=O)(=O)c1cc2c3c(c1)CC(=O)N3CCC2 | 7.63% | – | –
16 | O=C(O)CCN1C(=O)c2ccc(NC(=O)COc3ccccc3)cc2C1=O | 21.8% | 23.1 µM [rising, single point] | –
17 | CC(C)(C)NC(=O)CSc1nc(O)cc(=O)[nH]1 | -11.1% | – | 0.058 µM [rising, full curve, poor fit]
18 | O=C(NC1CCN(C(=O)Nc2cccc(Cl)c2)CC1)C1CCCCC1 | 29.5% | 6.51 µM [falling, single point] | 1.46 µM [rising, full curve, poor fit]
19 | FC(F)(F)c1nc2ccccc2nc1N/N=C\c1ccccc1 | -93.6% | 13 µM [falling, partial curve] | 18.4 µM [falling, partial curve]
20 | COc1ccc(N2C(=O)C(C)(C)C2c2c(O)ccc3ccccc23)cc1 (centres undefined) | -33% | 2.31 µM [falling, full curve] | 0.0651 µM [falling, full curve, poor fit]
21 | O=P(O)(CN1CCCCCC1)CN1CCCCCC1 | -168% | 6.51 µM [falling, single point] | 25.9 µM [falling, partial curve]
22 | CCOc1ccc(Br)cc1S(=O)(=O)Nc1ccc(C(=O)Nc2ccc(C)cc2)cc1 | 2.77% | 3.66 µM [rising, single point] | –
23 | CCN(C(=O)CSc1nc2ccccc2c(=O)n1-c1cccc(C)c1)C1CCS(=O)(=O)C1 (centres undefined) | 8.45% | 3.26 µM [falling, single point] | –
24 | CCOC(=O)C1(Cc2cccc(OC)c2)CCN(CC2CC=CCC2)CC1 (centres undefined) | -4.62% | 0.461 µM [falling, single point] | –
25 | Cc1ccc2cc(CN(Cc3ccco3)C(=O)C3CCCCC3)c(=O)[nH]c2c1C | 6.29% | 0.82 µM [rising, full curve, poor fit] | –
26 | CNC(=O)c1cc(Oc2ccc(NC(=O)Nc3ccc(Cl)c(C(F)(F)F)c3)cc2)ccn1 | -24.1% | – | 1.64 µM [falling, partial curve]
27 | CCN(C(=O)c1c(C)noc1C)c1c(N)n(Cc2ccccc2)c(=O)[nH]c1=O | -1.12% | 0.00517 µM [falling, full curve, poor fit] | –
28 | COCCn1c(-c2cccc([N+](=O)[O-])c2)nc2c1c(=O)[nH]c(=O)n2Cc1ccccc1 | -50% | 8.2 µM [rising, partial curve, poor fit] | 29.1 µM [falling, single point]

Reformatted in markdown: entries from further up.

| Row | SMILES | cell number change | AC50 [1] | AC50 [2] |
| --- | --- | --- | --- | --- |
| 7 | O=C(CSc1nc2ccccc2[nH]1)c1ccc(Cl)s1 | 30.9% | – | 1.84 µM [rising, partial curve, poor fit] |
| 8 | COc1ccc(/C=C/C(=O)OCc2cccc([N+](=O)[O-])c2)cc1 | -3.42% | – | 0.731 µM [falling, full curve, poor fit] |
| 9 | CCCN1C(=O)CC(Sc2ncccc2C(=O)O)C1=O (centres undefined) | -21.3% | 4.11 µM [falling, full curve] | – |
| 10 | CCc1ccc(NC(=O)CSc2nc(=O)n(CCN(C)C)c3c2CCCC3)cc1 | -20% | 2.06 µM [falling, partial curve, poor fit] | 2.06 µM [falling, full curve, poor fit] |

The list goes on.

Row | SMILES | cell number change | AC50 [1] | AC50 [2]
29 | CCOC(=O)CCNC(=O)Nc1ccc2nc(C)n(Cc3cccc(Cl)c3)c(=O)c2c1 | -0.529% | 0.461 µM [rising, full curve] | –
30 | CCCCC(CC)CNC(=O)CCS(=O)(=O)c1cccc2nonc12 (centres undefined) | 3.92% | 29.1 µM [rising, single point] | –
31 | CCN(CC)C(=O)c1sc(NC(=O)C(Sc2ccccc2)c2ccccc2)c(C(=O)OC(C)C)c1C (centres undefined) | 52% | 6.51 µM [rising, single point] | –
32 | CCN(CC)c1ccc(/C=N/n2c(=S)[nH]nc(C)c2=O)cc1 | 14.8% | 29.1 µM [rising, single point] | –
33 | COCCSc1nnc(NC(=O)C2CC(=O)N(CCc3ccc(F)cc3)C2)s1 (centres undefined) | 24.8% | 29.1 µM [rising, single point] | –
34 | O=C1CCCN1CCCNS(=O)(=O)c1ccc(F)cc1F | -16.2% | 32.6 µM [falling, single point] | –
35 | COc1cc(-c2noc(-c3ccccc3C(=O)NCc3ccco3)n2)cc(OC)c1OC | 10% | 2.06 µM [rising, full curve] | 2.06 µM [rising, partial curve]
36 | CCSc1nnc(NC(=O)c2cc3c(s2)CCCC3)s1 | -34.9% | 20.6 µM [falling, single point] | 4.11 µM [falling, full curve, poor fit]
37 | CC(C)(C)c1ccc(C(=O)NCCC(=O)NCc2cccs2)cc1 | – | 0.291 µM [rising, partial curve, poor fit] | –
38 | O=C(c1cccc(S(=O)(=O)N2CCN(c3ccccc3)CC2)c1)N1CCN(c2ccccc2O)CC1 | 6.61% | – | –
39 | COc1cccc2c1C(=O)c1c(O)c3c(c(O)c1C2=O)C[C@@](O)(C(C)=O)C[C@@H]3O[C@H]1C[C@H](N)[C@H](O)[C@H](C)O1 | -103% | 1.46 µM [falling, full curve] | 2.31 µM [falling, full curve]
40 | CCN(CC)CCN(C(=O)c1ccc2c(c1)CCCC2)c1nc2ccc(C)cc2s1 | -1.51% | – | –
41 | Cn1c2ccccc2c2c(C(=O)NCc3ccco3)cn(C3CCCCC3)c(=O)c21 | 51.4% | 7.31 µM [rising, partial curve, poor fit] | 29.1 µM [rising, single point]
42 | O=C(O)CCCCCNc1nc2ncn(Cc3ccccc3)c2c(=O)[nH]1 | – | 25.9 µM [falling, partial curve] | –
43 | Cc1ccc(C(=O)CC(C(=O)O)n2cncn2)cc1 (centres undefined) | 29.8% | 5.8 µM [rising, full curve] | –
44 | Cc1c(N=c2scc(-c3ccccc3)n2CCO)c(=O)n(-c2ccccc2)n1C | -10.3% | – | –
45 | COc1ccccc1NC(=O)Nc1cc(C(C)C)ccc1C | -11.5% | 4.11 µM [falling, full curve] | –
46 | CC1(C)CC(=O)c2cnc(N3CCN(c4ccccc4)CC3)nc2C1 | 14% | 3.66 µM [rising, partial curve] | –
47 | CCCCn1c(SCC(=O)Nc2cc(C)[nH]n2)nc2ccsc2c1=O | -17.4% | 0.116 µM [falling, partial curve, poor fit] | –
48 | CC(=O)NCCc1ccc(S(=O)(=O)N(C)C2CCS(=O)(=O)C2)cc1 (centres undefined) | -3.86% | 3.66 µM [falling, single point] | –
49 | NC(=O)CC(NC(=O)Cc1cccc2ccccc12)c1ccc(N2CCC(Cc3ccccc3)CC2)c([N+](=O)[O-])c1 (centres undefined) | 10.7% | – | –
50 | C=CCNC(=O)CSc1nc2cc(C(=O)OCC)ccc2n1CC | -3.64% | 0.259 µM [rising, full curve, poor fit] | –
51 | CC(C)CCNC(=O)CNC(=S)N(Cc1ccccc1)Cc1cccnc1 | -13.7% | 0.058 µM [rising, full curve, poor fit] | –
52 | CCOC(=O)c1c(C)[nH]c(C(=O)OCC(=O)NC(C)(C)C)c1C | – | 0.103 µM [rising, single point] | –
53 | COc1cc(C(=O)NCc2cccnc2)ccc1OCC(=O)Nc1cccc(C(F)(F)F)c1 | -0.757% | 29.1 µM [falling, single point] | –
54 | Brc1cnc(N2CCCC2)nc1N1CCCCC1 | 54.5% | – | 13 µM [rising, partial curve, poor fit]
55 | Cc1cc(C)cc(OC(C)C(=O)Nc2ccc(S(=O)(=O)Nc3cc(C)nc(C)n3)cc2)c1 (centres undefined) | 17.4% | 6.51 µM [rising, single point] | –
